Structures can show the parent of a compound that is named as a salt. The list shows a part of the results. The calls rarely recur for the same compound in another form.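 In K562 cells expressing nanoluciferase-fused kinases, luminescence was recorded at 4 h intervals between 2 and 18 h, normalized as percent of control with DMSO at 100% and a positive control at 0%. A significant (2 sigma) signal drop marks a time point as decreased. The authors' rule for a hit is not shown and takes in more than the number of time points.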
What was measured:
Assay in all cases: kinase-Nluc reporter destabilization hit call (1 = scored as downregulated) (binary); higher = compound decreases kinase abundance
Conditions in all cases: K562; 2-18 h
[1] = test system: BRAF_V600E
[2] = target: BTK (UniProt Q06187)
[3] = target: CAMK2A (UniProt Q9UQM7)
[4] = target: CAMK2G (UniProt Q13555)
[5] = target: CDK10 (UniProt Q15131)
[6] = target: CDK2 (UniProt P24941)
[7] = target: CDK3 (UniProt Q00526)
[8] = target: CDK4 (UniProt P11802)
[9] = target: CDK5 (UniProt Q00535)
[10] = target: CDK6 (UniProt Q00534)
[11] = target: CDK7 (UniProt P50613)
[12] = target: CDK9 (UniProt P50750)
[13] = target: CHEK2 (UniProt O96017)
[14] = target: CSF1R (UniProt P07333)
[15] = target: CSK (UniProt P41240)
[16] = target: CSNK1A1 (UniProt P48729)
[17] = target: CSNK1D (UniProt P48730)
[18] = target: DDR1 (UniProt Q08345)
[19] = target: DYRK1B (UniProt Q9Y463)
[20] = target: DYRK2 (UniProt Q92630)

Protein sequences, listed by entry. Tags and fused reporters are not part of them. Lines headed by an entry give the natural chain unless they say otherwise; changes in a name come on top.
UniProt Q06187: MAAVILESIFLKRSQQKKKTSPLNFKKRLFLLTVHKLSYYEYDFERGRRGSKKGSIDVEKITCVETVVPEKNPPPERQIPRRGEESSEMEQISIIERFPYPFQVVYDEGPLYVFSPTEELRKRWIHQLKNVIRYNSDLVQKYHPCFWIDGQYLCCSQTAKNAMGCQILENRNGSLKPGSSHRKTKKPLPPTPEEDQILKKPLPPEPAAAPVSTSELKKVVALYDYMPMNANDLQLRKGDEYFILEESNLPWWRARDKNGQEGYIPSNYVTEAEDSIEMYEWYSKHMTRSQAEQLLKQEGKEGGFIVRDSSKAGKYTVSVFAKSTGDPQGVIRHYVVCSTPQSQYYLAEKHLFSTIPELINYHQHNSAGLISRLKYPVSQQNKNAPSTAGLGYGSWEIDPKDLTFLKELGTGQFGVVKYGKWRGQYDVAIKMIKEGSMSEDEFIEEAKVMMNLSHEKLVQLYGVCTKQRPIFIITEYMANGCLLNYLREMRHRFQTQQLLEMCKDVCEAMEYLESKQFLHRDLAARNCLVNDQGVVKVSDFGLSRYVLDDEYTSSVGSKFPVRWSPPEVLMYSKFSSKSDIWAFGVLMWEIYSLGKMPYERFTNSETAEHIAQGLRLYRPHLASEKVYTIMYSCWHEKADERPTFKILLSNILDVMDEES
UniProt Q9UQM7, whole entry: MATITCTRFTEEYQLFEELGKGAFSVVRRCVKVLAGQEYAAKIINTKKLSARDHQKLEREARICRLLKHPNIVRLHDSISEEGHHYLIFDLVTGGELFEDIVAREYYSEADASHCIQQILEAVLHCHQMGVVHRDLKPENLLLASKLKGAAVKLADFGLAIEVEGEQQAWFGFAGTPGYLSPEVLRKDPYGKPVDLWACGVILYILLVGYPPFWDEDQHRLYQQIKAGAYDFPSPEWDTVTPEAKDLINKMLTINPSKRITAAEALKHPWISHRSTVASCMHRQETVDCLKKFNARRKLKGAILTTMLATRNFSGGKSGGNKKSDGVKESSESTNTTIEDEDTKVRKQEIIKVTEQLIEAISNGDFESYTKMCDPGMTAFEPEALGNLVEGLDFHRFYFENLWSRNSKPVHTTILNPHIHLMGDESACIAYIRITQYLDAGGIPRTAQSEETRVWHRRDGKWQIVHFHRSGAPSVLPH
UniProt Q13555: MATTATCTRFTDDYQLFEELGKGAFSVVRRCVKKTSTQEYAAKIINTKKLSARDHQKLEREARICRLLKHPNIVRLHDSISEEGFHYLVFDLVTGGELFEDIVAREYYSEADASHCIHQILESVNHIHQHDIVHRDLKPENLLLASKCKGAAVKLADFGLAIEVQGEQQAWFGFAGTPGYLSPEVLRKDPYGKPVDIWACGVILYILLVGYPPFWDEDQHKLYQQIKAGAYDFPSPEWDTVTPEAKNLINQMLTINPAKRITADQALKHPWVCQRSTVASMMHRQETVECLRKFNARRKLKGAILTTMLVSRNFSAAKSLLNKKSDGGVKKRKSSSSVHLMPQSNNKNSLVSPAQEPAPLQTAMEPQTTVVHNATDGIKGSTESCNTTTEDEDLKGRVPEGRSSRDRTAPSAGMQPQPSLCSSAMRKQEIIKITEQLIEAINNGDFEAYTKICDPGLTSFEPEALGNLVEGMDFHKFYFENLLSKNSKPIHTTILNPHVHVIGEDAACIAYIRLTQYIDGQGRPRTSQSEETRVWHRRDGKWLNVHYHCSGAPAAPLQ
UniProt Q00526: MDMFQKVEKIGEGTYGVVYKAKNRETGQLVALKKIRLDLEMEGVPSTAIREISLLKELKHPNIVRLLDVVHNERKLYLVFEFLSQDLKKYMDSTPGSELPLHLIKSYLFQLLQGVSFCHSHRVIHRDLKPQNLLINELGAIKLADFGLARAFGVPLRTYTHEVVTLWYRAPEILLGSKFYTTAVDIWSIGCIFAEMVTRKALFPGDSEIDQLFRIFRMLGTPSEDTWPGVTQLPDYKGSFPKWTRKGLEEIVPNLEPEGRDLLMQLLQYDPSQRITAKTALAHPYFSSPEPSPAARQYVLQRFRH
UniProt P11802: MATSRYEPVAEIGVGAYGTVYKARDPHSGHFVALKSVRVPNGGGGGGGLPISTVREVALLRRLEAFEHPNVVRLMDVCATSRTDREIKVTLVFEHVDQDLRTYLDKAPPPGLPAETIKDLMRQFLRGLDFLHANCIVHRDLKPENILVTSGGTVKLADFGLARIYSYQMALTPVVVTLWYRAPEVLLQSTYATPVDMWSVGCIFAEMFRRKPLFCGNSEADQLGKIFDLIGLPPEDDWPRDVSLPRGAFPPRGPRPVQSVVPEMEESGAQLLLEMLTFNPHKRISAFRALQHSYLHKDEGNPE
UniProt Q00535, whole entry, looked up: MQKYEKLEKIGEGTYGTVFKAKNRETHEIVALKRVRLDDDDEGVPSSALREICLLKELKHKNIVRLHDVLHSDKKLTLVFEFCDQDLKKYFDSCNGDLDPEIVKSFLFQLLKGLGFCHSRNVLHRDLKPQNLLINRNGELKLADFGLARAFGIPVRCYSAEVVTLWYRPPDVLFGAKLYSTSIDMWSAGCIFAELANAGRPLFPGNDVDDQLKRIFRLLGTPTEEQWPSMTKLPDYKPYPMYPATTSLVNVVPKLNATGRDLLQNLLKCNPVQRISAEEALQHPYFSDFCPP
UniProt Q00534, whole entry: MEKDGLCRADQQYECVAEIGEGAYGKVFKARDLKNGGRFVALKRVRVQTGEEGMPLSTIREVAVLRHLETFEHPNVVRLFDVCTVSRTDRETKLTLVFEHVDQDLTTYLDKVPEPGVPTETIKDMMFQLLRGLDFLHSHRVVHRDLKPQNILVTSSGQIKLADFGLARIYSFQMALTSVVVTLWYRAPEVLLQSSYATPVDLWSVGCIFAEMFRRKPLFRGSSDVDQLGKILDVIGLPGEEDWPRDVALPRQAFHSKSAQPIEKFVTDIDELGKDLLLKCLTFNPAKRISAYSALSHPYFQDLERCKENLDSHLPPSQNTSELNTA
UniProt P50750, whole entry: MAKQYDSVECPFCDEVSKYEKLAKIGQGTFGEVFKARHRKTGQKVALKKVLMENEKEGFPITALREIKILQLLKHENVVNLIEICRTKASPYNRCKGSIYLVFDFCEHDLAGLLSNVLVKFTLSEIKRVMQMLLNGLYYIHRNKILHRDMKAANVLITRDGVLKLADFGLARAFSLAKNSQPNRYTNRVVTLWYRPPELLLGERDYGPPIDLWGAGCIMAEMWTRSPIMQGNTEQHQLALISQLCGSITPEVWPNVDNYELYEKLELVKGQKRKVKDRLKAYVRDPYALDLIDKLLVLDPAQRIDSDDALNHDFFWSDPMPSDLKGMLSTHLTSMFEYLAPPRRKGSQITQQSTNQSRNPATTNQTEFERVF
UniProt O96017, whole entry: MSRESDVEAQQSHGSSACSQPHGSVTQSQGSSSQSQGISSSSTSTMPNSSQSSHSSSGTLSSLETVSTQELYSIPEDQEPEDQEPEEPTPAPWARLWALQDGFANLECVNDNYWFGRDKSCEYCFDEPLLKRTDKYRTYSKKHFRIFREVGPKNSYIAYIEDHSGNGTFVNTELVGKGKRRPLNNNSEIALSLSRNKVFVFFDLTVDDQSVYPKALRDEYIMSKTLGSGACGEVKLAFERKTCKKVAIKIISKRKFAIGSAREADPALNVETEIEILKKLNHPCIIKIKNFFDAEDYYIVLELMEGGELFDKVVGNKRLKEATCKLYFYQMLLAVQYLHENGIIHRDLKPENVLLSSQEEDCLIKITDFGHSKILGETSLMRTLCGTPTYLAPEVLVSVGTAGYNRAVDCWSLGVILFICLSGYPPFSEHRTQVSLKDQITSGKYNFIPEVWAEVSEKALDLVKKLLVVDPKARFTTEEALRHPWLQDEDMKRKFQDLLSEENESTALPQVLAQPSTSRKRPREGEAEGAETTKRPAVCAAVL
UniProt P07333, whole entry: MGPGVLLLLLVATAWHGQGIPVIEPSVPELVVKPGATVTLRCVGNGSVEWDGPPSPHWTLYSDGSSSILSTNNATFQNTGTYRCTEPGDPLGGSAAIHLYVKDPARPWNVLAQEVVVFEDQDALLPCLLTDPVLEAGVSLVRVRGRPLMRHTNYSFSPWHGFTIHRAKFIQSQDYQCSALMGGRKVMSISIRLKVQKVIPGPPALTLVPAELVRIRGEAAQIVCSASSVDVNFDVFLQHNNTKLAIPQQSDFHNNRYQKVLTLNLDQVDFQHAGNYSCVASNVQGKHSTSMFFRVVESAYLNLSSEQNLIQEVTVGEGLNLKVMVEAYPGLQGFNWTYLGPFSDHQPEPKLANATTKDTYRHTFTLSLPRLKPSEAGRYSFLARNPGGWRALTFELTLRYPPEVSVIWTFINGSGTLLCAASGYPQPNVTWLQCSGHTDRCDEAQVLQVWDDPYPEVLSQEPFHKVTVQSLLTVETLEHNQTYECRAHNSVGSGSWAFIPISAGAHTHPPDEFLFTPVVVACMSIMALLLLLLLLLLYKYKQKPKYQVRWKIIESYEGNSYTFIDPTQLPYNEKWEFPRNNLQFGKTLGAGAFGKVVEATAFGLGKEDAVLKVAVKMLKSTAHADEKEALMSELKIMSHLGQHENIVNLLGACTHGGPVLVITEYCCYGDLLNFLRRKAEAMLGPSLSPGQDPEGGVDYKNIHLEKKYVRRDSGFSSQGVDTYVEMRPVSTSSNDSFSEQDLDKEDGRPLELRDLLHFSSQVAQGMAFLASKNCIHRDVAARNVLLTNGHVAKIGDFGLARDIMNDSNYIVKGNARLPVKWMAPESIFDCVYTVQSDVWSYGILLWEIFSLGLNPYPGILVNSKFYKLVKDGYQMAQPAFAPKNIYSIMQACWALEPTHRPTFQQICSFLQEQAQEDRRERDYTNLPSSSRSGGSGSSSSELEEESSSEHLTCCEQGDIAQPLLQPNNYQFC
UniProt P41240: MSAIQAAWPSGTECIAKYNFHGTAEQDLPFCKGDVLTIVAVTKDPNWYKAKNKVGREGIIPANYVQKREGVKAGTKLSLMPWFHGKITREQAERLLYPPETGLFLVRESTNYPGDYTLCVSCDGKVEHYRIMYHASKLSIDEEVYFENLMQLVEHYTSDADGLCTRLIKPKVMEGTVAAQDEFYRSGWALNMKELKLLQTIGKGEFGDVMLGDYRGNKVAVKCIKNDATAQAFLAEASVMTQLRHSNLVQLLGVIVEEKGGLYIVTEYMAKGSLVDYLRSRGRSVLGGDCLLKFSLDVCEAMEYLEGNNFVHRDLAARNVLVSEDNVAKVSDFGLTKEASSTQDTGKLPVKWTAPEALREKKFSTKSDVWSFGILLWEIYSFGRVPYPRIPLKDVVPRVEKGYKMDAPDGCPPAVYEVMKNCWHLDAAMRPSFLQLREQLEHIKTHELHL
UniProt P48730: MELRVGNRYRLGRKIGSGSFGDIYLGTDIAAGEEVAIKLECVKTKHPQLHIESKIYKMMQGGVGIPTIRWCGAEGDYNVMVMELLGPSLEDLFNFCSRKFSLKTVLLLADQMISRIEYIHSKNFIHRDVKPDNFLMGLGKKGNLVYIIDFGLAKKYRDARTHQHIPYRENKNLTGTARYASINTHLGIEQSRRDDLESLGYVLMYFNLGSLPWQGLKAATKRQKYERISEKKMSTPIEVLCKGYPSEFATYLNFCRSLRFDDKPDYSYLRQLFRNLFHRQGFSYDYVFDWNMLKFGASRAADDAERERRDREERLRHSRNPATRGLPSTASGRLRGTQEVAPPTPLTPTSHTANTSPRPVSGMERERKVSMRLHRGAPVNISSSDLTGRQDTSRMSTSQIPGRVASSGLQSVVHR
UniProt Q9Y463, whole entry, looked up: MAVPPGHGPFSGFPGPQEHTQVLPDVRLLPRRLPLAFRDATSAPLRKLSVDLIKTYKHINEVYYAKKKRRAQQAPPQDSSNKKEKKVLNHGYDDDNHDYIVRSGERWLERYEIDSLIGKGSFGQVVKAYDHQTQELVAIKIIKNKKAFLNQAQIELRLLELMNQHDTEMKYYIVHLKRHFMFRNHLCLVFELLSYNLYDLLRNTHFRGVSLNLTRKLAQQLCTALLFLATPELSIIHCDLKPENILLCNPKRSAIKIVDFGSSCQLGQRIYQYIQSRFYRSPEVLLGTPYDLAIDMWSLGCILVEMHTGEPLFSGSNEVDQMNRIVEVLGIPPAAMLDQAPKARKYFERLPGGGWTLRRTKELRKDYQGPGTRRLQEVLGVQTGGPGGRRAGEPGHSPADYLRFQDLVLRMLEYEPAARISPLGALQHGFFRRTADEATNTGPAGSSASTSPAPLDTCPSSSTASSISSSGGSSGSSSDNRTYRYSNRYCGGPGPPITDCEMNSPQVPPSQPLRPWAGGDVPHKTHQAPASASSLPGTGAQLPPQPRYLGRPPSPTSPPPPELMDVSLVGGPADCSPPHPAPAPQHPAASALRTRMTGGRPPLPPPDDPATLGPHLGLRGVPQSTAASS

Measured: kinase-Nluc reporter destabilization hit call

O=C1NC(=O)/C(=C/c2ccc3nccc(-c4ccncc4)c3c2)S1 (10 µM)
inactive: [1] 0 | [2] 0 | [3] 0 | [4] 0 | [5] 0 | [6] 0 | [7] 0 | [8] 0 | [9] 0 | [10] 0 | [11] 0 | [12] 0 | [13] 0 | [14] 0 | [15] 0 | [16] 0 | [17] 0 | [18] 0 | [19] 0 | [20] 0

C#Cc1cccc(Nc2ncnc3cc(OC)c(OCCCCCCC(=O)NO)cc23)c1 (2.5 µM)
inactive: [1] 0 | [2] 0 | [3] 0 | [4] 0 | [5] 0 | [6] 0 | [7] 0 | [8] 0 | [9] 0 | [10] 0 | [11] 0 | [12] 0 | [13] 0 | [14] 0 | [15] 0 | [16] 0 | [17] 0 | [18] 0 | [19] 0 | [20] 0

NC(=O)c1cnc2[nH]ccc2c1N[C@@H]1[C@@H]2CC3C[C@H]1C[C@@](O)(C3)C2 [Peficitinib] (10 µM)
inactive: [1] 0 | [2] 0 | [3] 0 | [4] 0 | [5] 0 | [6] 0 | [7] 0 | [8] 0 | [9] 0 | [10] 0 | [11] 0 | [12] 0 | [13] 0 | [14] 0 | [15] 0 | [16] 0 | [17] 0 | [18] 0 | [19] 0 | [20] 0

COc1cc(/C=C/C(=O)N2CCC=CC2=O)cc(OC)c1OC [Piperlongumine] (2.5 µM)
active: [1] 1
inactive: [2] 0 | [3] 0 | [4] 0 | [5] 0 | [6] 0 | [7] 0 | [8] 0 | [9] 0 | [10] 0 | [11] 0 | [12] 0 | [13] 0 | [14] 0 | [15] 0 | [16] 0 | [17] 0 | [18] 0 | [19] 0 | [20] 0

CC(C)N1CCN(c2ccc(Nc3ncc4cc5n(c4n3)C3(CCCCC3)CNC5=O)nc2)CC1 [Lerociclib (dihydrochloride)] (2 µM)
inactive: [1] 0 | [2] 0 | [3] 0 | [4] 0 | [5] 0 | [6] 0 | [7] 0 | [8] 0 | [9] 0 | [10] 0 | [11] 0 | [12] 0 | [13] 0 | [14] 0 | [15] 0 | [16] 0 | [17] 0 | [18] 0 | [19] 0 | [20] 0

Cc1cc2sc(NC(=O)Cc3ccccc3)nc2cc1Cl (10 µM)
inactive: [1] 0 | [2] 0 | [3] 0 | [4] 0 | [5] 0 | [6] 0 | [7] 0 | [8] 0 | [9] 0 | [10] 0 | [11] 0 | [12] 0 | [13] 0 | [14] 0 | [15] 0 | [16] 0 | [17] 0 | [18] 0 | [19] 0 | [20] 0

CCN(CC)CCC(=O)N1N=C(c2c(-c3ccccc3)c3cc(Br)ccc3[nH]c2=O)CC1c1ccc(Br)cc1 (stereo not given) (2.5 µM)
inactive: [1] 0 | [2] 0 | [3] 0 | [4] 0 | [5] 0 | [6] 0 | [7] 0 | [8] 0 | [9] 0 | [10] 0 | [11] 0 | [12] 0 | [13] 0 | [14] 0 | [15] 0 | [16] 0 | [17] 0 | [18] 0 | [19] 0 | [20] 0

C[C@@H]1CC(=O)c2c(ccc3c2C(=O)c2cccc(O)c2C3=O)C1 [Ochromycinone] (10 µM)
inactive: [1] 0 | [2] 0 | [3] 0 | [4] 0 | [5] 0 | [6] 0 | [7] 0 | [8] 0 | [9] 0 | [10] 0 | [11] 0 | [12] 0 | [13] 0 | [14] 0 | [15] 0 | [16] 0 | [17] 0 | [18] 0 | [19] 0 | [20] 0

3 entries out of the list, sorted by formula weight, largest number first:
CCN(CC)CCC(=O)N1N=C(c2c(-c3ccccc3)c3cc(Br)ccc3[nH]c2=O)CC1c1ccc(Br)cc1 (stereo not given) (2.5 µM)
inactive: [1] 0 | [2] 0 | [3] 0 | [4] 0 | [5] 0 | [6] 0 | [7] 0 | [8] 0 | [9] 0 | [10] 0 | [11] 0 | [12] 0 | [13] 0 | [14] 0 | [15] 0 | [16] 0 | [17] 0 | [18] 0 | [19] 0 | [20] 0

CC(C)N1CCN(c2ccc(Nc3ncc4cc5n(c4n3)C3(CCCCC3)CNC5=O)nc2)CC1 [Lerociclib (dihydrochloride)] (2 µM)
inactive: [1] 0 | [2] 0 | [3] 0 | [4] 0 | [5] 0 | [6] 0 | [7] 0 | [8] 0 | [9] 0 | [10] 0 | [11] 0 | [12] 0 | [13] 0 | [14] 0 | [15] 0 | [16] 0 | [17] 0 | [18] 0 | [19] 0 | [20] 0

COc1cc(/C=C/C(=O)N2CCC=CC2=O)cc(OC)c1OC [Piperlongumine] (2.5 µM)
active: [1] 1
inactive: [2] 0 | [3] 0 | [4] 0 | [5] 0 | [6] 0 | [7] 0 | [8] 0 | [9] 0 | [10] 0 | [11] 0 | [12] 0 | [13] 0 | [14] 0 | [15] 0 | [16] 0 | [17] 0 | [18] 0 | [19] 0 | [20] 0

Continuation.

O=C(Nc1cccc(C(F)(F)F)c1)c1cccc2cc(Oc3cc(CO)ncn3)ccc12 (10 µM)
inactive: [1] 0 | [2] 0 | [3] 0 | [4] 0 | [5] 0 | [6] 0 | [7] 0 | [8] 0 | [9] 0 | [10] 0 | [11] 0 | [12] 0 | [13] 0 | [14] 0 | [15] 0 | [16] 0 | [17] 0 | [18] 0 | [19] 0 | [20] 0

Cc1cnc(-c2ccc(-c3ccc(NC(=O)Nc4cccc(C(F)(F)F)c4)cc3F)c3c2C(=O)NC3)[nH]1 (10 µM)
inactive: [1] 0 | [2] 0 | [3] 0 | [4] 0 | [5] 0 | [6] 0 | [7] 0 | [8] 0 | [9] 0 | [10] 0 | [11] 0 | [12] 0 | [13] 0 | [14] 0 | [15] 0 | [16] 0 | [17] 0 | [18] 0 | [19] 0 | [20] 0

CC(C)CCNC(=O)c1ccc2c(c1)nc(Nc1n[nH]c3ccc(-c4ccccc4OC(F)(F)F)cc13)n2C1CCC(O)CC1 (stereo not drawn) [IRAK inhibitor 4 (trans)] (10 µM)
inactive: [1] 0 | [2] 0 | [3] 0 | [4] 0 | [5] 0 | [6] 0 | [7] 0 | [8] 0 | [9] 0 | [10] 0 | [11] 0 | [12] 0 | [13] 0 | [14] 0 | [15] 0 | [16] 0 | [17] 0 | [18] 0 | [19] 0 | [20] 0

O=[N+]([O-])c1ccc2c(c1)S(=O)(=O)C=C2 [Stattic] (2.5 µM)
inactive: [1] 0 | [2] 0 | [3] 0 | [4] 0 | [5] 0 | [6] 0 | [7] 0 | [8] 0 | [9] 0 | [10] 0 | [11] 0 | [12] 0 | [13] 0 | [14] 0 | [15] 0 | [16] 0 | [17] 0 | [18] 0 | [19] 0 | [20] 0

COc1ccc2cc(-c3nc(-c4ccc([S+](C)[O-])cc4)[nH]c3-c3ccncc3)ccc2c1 (stereo not given) [Tie2 kinase inhibitor 1] (2.5 µM)
inactive: [1] 0 | [2] 0 | [3] 0 | [4] 0 | [5] 0 | [6] 0 | [7] 0 | [8] 0 | [9] 0 | [10] 0 | [11] 0 | [12] 0 | [13] 0 | [14] 0 | [15] 0 | [16] 0 | [17] 0 | [18] 0 | [19] 0 | [20] 0

C=CC(=O)Nc1cc(Nc2nccc(-n3cc(CN(C)C)c(-c4ccccc4)n3)n2)c(OC)cc1N1CCOCC1 [Lazertinib] (10 µM)
inactive: [1] 0 | [2] 0 | [3] 0 | [4] 0 | [5] 0 | [6] 0 | [7] 0 | [8] 0 | [9] 0 | [10] 0 | [11] 0 | [12] 0 | [13] 0 | [14] 0 | [15] 0 | [16] 0 | [17] 0 | [18] 0 | [19] 0 | [20] 0

Cc1ccc(C(=O)Nc2sc(Nc3ccccc3)nc2C(N)=O)cc1 (10 µM)
inactive: [1] 0 | [2] 0 | [3] 0 | [4] 0 | [5] 0 | [6] 0 | [7] 0 | [8] 0 | [9] 0 | [10] 0 | [11] 0 | [12] 0 | [13] 0 | [14] 0 | [15] 0 | [16] 0 | [17] 0 | [18] 0 | [19] 0 | [20] 0

Oc1ccc(/C=C/c2cc(O)cc(F)c2)cc1 [Resveratrol analog 1] (10 µM)
inactive: [1] 0 | [2] 0 | [3] 0 | [4] 0 | [5] 0 | [6] 0 | [7] 0 | [8] 0 | [9] 0 | [10] 0 | [11] 0 | [12] 0 | [13] 0 | [14] 0 | [15] 0 | [16] 0 | [17] 0 | [18] 0 | [19] 0 | [20] 0

O=c1cc(N2CCOCC2)nc2c3ccccc3ccn12 [Compound 401] (10 µM)
inactive: [1] 0 | [2] 0 | [3] 0 | [4] 0 | [5] 0 | [6] 0 | [7] 0 | [8] 0 | [9] 0 | [10] 0 | [11] 0 | [12] 0 | [13] 0 | [14] 0 | [15] 0 | [16] 0 | [17] 0 | [18] 0 | [19] 0 | [20] 0

— the supplement of paper PMC12823440, “Inhibitors supercharge kinase turnover through native proteolytic circuits” (Nature, 2025)
